Results reported in PMC6909106.
These are yes or no findings as the source states them, for the method shown. Binding seen in cells or lysates may run through a third protein. Some results given as binding are weak or reduced against the parent protein; the word gives no strength. For some assays here: Tags and fused reporters may be left off the sequences shown.

Chains of the proteins cited; added tags and fusions are not shown.
UniProt Q13131: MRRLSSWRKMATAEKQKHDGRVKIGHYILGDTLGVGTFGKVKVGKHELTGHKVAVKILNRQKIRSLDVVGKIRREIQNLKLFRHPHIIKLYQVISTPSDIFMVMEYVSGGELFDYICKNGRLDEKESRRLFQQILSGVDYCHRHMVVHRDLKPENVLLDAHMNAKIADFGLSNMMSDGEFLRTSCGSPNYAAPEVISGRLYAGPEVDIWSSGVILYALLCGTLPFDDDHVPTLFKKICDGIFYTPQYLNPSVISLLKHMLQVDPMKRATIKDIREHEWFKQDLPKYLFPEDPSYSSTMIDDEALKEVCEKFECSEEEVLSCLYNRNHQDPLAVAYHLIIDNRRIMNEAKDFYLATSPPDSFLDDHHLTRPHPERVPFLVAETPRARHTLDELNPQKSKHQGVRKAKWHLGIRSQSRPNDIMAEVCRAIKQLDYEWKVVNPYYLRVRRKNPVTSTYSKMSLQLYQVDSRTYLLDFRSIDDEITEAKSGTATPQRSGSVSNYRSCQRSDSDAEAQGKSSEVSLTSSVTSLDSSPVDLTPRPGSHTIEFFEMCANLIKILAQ
UniProt Q9Y297: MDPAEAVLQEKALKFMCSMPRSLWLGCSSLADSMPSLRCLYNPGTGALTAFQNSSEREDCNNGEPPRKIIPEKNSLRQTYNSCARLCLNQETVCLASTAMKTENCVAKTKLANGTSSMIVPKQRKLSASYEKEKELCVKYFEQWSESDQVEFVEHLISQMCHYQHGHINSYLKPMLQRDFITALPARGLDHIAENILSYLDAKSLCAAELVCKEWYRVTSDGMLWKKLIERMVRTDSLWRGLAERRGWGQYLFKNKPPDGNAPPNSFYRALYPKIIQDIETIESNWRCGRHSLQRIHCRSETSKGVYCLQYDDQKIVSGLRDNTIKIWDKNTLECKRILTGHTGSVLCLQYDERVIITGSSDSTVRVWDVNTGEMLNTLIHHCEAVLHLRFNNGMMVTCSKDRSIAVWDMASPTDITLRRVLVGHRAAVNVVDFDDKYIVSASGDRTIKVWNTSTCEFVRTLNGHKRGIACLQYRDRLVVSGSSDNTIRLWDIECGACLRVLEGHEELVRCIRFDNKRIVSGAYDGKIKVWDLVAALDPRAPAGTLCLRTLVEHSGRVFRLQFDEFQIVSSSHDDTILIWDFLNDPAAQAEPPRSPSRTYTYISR

T1: EGFP-WT-Nrf2 (nuclear factor (erythroid-derived 2)-like 2, EGFP-tagged wild type) (human) (UniProt Q16236)
T1 sequence: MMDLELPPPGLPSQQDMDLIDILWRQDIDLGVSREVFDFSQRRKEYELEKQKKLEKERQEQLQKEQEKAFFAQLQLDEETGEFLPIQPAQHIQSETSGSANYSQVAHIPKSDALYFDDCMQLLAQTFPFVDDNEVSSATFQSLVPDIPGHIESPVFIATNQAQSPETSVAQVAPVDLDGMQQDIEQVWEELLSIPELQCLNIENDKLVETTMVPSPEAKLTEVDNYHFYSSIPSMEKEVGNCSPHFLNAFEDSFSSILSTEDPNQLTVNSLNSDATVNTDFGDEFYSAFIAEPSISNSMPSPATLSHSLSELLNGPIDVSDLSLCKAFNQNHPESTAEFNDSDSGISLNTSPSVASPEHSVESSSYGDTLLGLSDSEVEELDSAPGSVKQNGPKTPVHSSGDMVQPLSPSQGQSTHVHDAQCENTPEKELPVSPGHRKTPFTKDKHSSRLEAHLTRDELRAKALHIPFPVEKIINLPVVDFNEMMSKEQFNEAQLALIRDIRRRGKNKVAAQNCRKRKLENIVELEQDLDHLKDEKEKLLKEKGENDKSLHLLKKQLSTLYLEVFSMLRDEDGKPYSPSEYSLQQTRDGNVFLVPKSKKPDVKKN

B1: Nrf2 (prey of the reverse co-immunoprecipitation, Supplemental Fig. 1C) (protein, UniProt Q16236 1-605)
chain: T1 sequence

What was measured:
[1] = biological target: T1, EGFP-WT-Nrf2 (nuclear factor (erythroid-derived 2)-like 2, EGFP-tagged wild type) (human); test: co-IP; GFP-Trap pulldown of EGFP-WT-Nrf2, EGFP-TM-Nrf2 or EGFP from lysates of HEK cells co-transfected with myc-β-TrCP; cells treated with DMSO or A769662 (50 μM) 1 h before MG132 (20 μM, 3 h); immunoblots for myc and GFP, densitometry of myc/GFP signal
[2] = biological target: AMPK (bait of the reverse co-immunoprecipitation, Supplemental Fig. 1C) (UniProt Q13131); test: co-IP; reverse co-immunoprecipitation: specific pulldown of AMPK from cell lysates, detection of Nrf2 (Supplemental Fig. 1C)

Molecule | binding [1] | binding [2]
myc-tagged β-TrCP (β-transducin repeat containing protein 1) (from UniProt Q9Y297 1-605) | binds | 
B1 |  | binds
